Measured values reported in paper PMC1444913.
These are yes or no findings as the source states them, for the method shown. Binding seen in cells or lysates may run through a third protein.

B1: occludin (protein, UniProt Q16625 1-522)
chain: MSSRPLESPPPYRPDEFKPNHYAPSNDIYGGEMHVRPMLSQPAYSFYPEDEILHFYKWTSPPGVIRILSMLIIVMCIAIFACVASTLAWDRGYGTSLLGGSVGYPYGGSGFGSYGSGYGYGYGYGYGYGGYTDPRAAKGFMLAMAAFCFIAALVIFVTSVIRSEMSRTRRYYLSVIIVSAILGIMVFIATIVYIMGVNPTAQSSGSLYGSQIYALCNQFYTPAATGLYVDQYLYHYCVVDPQEAIAIVLGFMIIVAFALIIFFAVKTRRKMDRYDKSNILWDKEHIYDEQPPNVEEWVKNVSAGTQDVPSPPSDYVERVDSPMAYSSNGKVNDKRFYPESSYKSTPVPEVVQELPLTSPVDDFRQPRYSSGGNFETPSKRAPAKGRAGRSKRTEQDHYETDYTTGGESCDELEEDWIREYPPITSDQQRQLYKRNFDTGLQEYKSLQSELDEINKELSRLDKELDDYREESEEYMAAADEYNRLKQVKGSADYKSKKNHCKQLKSKLSHIKKMVGDYDRQKT
B2: junctional adhesion molecule (JAM)-A (protein, UniProt Q9Y624 28-299)
chain: SVTVHSSEPEVRIPENNPVKLSCAYSGFSSPRVEWKFDQGDTTRLVCYNNKITASYEDRVTFLPTGITFKSVTREDTGTYTCMVSEEGGNSYGEVKVKLIVLVPPSKPTVNIPSSATIGNRAVLTCSEQDGSPPSEYTWFKDGIVMPTNPKSTRAFSNSSYVLNPTTGELVFDPLSASDTGEYSCEARNGYGTPMTSNAVRMEAVERNVGVIVAAVLVTLILLGILVFGIWFAYSRGHFDRTKKGTSSKKVIYSQPSARSEGEFKQTSSFLV
B3: p120 catenin (protein, UniProt O60716 1-968)
chain: MDDSEVESTASILASVKEQEAQFEKLTRALEEERRHVSAQLERVRVSPQDANPLMANGTLTRRHQNGRFVGDADLERQKFSDLKLNGPQDHSHLLYSTIPRMQEPGQIVETYTEEDPEGAMSVVSVETSDDGTTRRTETTVKKVVKTVTTRTVQPVAMGPDGLPVDASSVSNNYIQTLGRDFRKNGNGGPGPYVGQAGTATLPRNFHYPPDGYSRHYEDGYPGGSDNYGSLSRVTRIEERYRPSMEGYRAPSRQDVYGPQPQVRVGGSSVDLHRFHPEPYGLEDDQRSMGYDDLDYGMMSDYGTARRTGTPSDPRRRLRSYEDMIGEEVPSDQYYWAPLAQHERGSLASLDSLRKGGPPPPNWRQPELPEVIAMLGFRLDAVKSNAAAYLQHLCYRNDKVKTDVRKLKGIPVLVGLLDHPKKEVHLGACGALKNISFGRDQDNKIAIKNCDGVPALVRLLRKARDMDLTEVITGTLWNLSSHDSIKMEIVDHALHALTDEVIIPHSGWEREPNEDCKPRHIEWESVLTNTAGCLRNVSSERSEARRKLRECDGLVDALIFIVQAEIGQKDSDSKLVENCVCLLRNLSYQVHREIPQAERYQEAAPNVANNTGPHAASCFGAKKGKDEWFSRGKKPIEDPANDTVDFPKRTSPARGYELLFQPEVVRIYISLLKESKTPAILEASAGAIQNLCAGRWTYGRYIRSALRQEKALSAIADLLTNEHERVVKAASGALRNLAVDARNKELIGKHAIPNLVKNLPGGQQNSSWNFSEDTVISILNTINEVIAENLEAAKKLRETQGIEKLVLINKSGNRSEKEVRAAALVLQTIWGYKELRKPLEKEGWKKSDFQVNLNNASRSQSSHSYDDSTLPLIDRNQKSDKKPDREEIQMSNMGSNTKSLDNNYSTPNERGDHNRTLDRSGDLGDMEPLKGTTPLMQDEGQESLEEELDVLVLDDEGGQVSYPSMQKI

Key:
[1] = molecular target: kinesin-1 heavy chain (human (endogenous in T84 and SK-CO-15)); assay: co-IP; T84 cell lysates (50 mM PIPES, 50 mM HEPES, 1 mM EDTA, 2 mM MgSO4, 1% TX-100, 0.5% Igepal, pH 7.0) incubated overnight at 4°C with anti-kinesin-1 heavy chain mAb H1 or anti-kinesin-2 heavy chain mAb K2.4, Protein G-Sepharose; Western blot for junctional proteins
[2] = molecular target: kinesin-2 heavy chain (human (endogenous in T84)); assay: as above

| Binder | binding [1] | binding [2] |
| --- | --- | --- |
| B1 | no binding | no binding |
| B2 | no binding | no binding |
| B3 |  | no binding |
